By UniProt entry, the sequences of proteins in these tests, tags left out. Where a name states a change or a piece, a line headed by the entry shows the natural chain unless it says otherwise.
UniProt P00740: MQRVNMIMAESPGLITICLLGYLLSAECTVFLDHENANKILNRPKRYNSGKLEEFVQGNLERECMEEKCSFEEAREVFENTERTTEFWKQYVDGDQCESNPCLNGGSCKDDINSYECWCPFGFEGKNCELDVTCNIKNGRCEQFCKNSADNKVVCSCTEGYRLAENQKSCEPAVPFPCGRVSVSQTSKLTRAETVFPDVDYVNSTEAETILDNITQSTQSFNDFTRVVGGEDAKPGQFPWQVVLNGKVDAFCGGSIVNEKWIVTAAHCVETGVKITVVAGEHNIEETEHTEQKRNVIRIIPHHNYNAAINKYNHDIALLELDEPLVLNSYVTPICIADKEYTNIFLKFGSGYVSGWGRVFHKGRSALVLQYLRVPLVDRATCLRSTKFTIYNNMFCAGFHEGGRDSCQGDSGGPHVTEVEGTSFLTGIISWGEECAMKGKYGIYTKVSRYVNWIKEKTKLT
UniProt P00742: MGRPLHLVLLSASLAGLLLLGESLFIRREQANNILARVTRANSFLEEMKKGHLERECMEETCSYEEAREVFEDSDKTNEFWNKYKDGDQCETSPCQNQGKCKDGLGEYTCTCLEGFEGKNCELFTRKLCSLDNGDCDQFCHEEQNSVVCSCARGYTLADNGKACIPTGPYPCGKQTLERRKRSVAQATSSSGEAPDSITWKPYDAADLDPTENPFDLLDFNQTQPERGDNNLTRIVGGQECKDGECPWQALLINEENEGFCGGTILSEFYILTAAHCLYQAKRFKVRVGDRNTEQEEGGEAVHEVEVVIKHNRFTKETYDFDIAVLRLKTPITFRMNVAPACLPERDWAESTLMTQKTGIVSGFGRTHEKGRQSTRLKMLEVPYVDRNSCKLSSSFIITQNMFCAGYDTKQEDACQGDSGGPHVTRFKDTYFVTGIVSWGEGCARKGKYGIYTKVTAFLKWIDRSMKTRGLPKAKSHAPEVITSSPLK

In patent US20170226225A1 (Merck Sharp & Dohme, published 2017):

Key:
[1] = molecular target: Human Factor IXa Protease (human) (UniProt P00740); test: SPR (Biacore T200), mAb captured on anti-human IgG (Fc) chip, protein as analyte
[2] = molecular target: Human Factor Xa Protease (human) (UniProt P00742); test: as above
[3] = molecular target: Human Factor IXa Protease (human) (UniProt P00740); test: SPR (Biacore T200): antibody captured on anti-human IgG (Fc) chip, analyte at 500 nM (single concentration), anti-RSV IgG4 as reference
[4] = molecular target: Human Factor Xa Protease (human) (UniProt P00742); test: as above

Measured: binding

B1: αFXI-13654p-IgG4 (S228P) (K-)/kappa (antibody, V domains shown)
VH: EVQLVESGGGLVKPGGSLRLSCAASGFTFSSYSMNWVRQAPGKGLEWVSSISSSSSYIYYADSVKGRFTISRDNAKNSLYLQMNSLRAEDTAVYYCARSYYDYDQGYGMDVWGQGTTVTVSS
VL: DIQMTQSPSSVSASVGDRVTITCRASQGISSWLAWYQQKPGKAPKLLIYAASSLQSGVPSRFSGSGSGTDFTLTISSLQPEDFATYYCQQVNSYPITFGGGTKVEIKR
notes: Human IgG4 S228P heavy chain lacking the C-terminal lysine; kappa light chain
no binding (tested: 500 nM): [1] | [2] | [3] | [4]

Results are given in words; binding and its absence hold for the method and conditions named.
